Source: patent US10806694B2, “Nanoparticles for photodynamic therapy, X-ray induced photodynamic therapy, radiotherapy, radiodynamic therapy, chemotherapy, immunotherapy, and any combination thereof” (The University of Chicago, priority 2014, dated 2020)

Assay: Singlet oxygen generation with Singlet Oxygen Sensor Green (SOSG) under LED irradiation
Type: physicochemical
Settings: for A (fitting parameter for 1O2 generation curve): 0.1 W/cm^2, 650 nm LED for DBC-UiO and H2DBC, 640 nm for the others; for Relative yield of 1O2 generation: normalized based on PpIX
Description: A light-emitting diode (LED) array with peak emission at 640 nm was used as the light source of singlet oxygen generation. The irradiance of LED is 100 mW/cm^2. Singlet oxygen sensor green (SOSG) reagent (Life Technologies, Carlsbad, Calif., United States of America) was employed for the detection of singlet oxygen. H2DBP and DBP-UiO samples were prepared in 5 μM solutions/suspensions in HBSS buffer (for DBP-UiO samples, the concentration was calculated as ligand equivalents). To 2 mL each of these solutions/suspensions, SOSG stock solution (5 μL at 5 mM) was added (final concentration=12.5 μM) before fluorescence measurement.
For a typical measurement, fluorescence intensity was acquired on a spectrofluorophotometer (RF-5301PC, Shimadzu Corporation, Kyoto, Japan) with excitation at 504 nm and emission at 525 nm (slit width 3 nm/5 nm for ex/em). Fluorescence was measured after irradiation by LED for 0 (as background), 10 s, 20 s, 30 s, 1 min, 1.5 min, 2 min, 2.5 min, 3 min, 3.5 min, 4 min, 4.5 min, 5 min, 6 min and 7 min.
Singlet oxygen generation efficiencies of H2DBP and DBP-UiO were determined using Singlet Oxygen Sensor Green (SOSG, Life Technologies). After exposure to a LED light source (peak emission at 640 nm, energy irradiance of 100 mW/cm^2), the […] reagent SOSG reacted with ^1O2 to generate green fluorescence which was quantified with a fluorimeter. The fluorescence intensity was plotted against irradiation time. The ^1O2 generation was depicted with an exponential function that corresponded to a pseudo first-order process. The ^1O2 generation curve was fitted with the following equation: IF=A(1−e^−kt) (1) Where IF is fluorescence intensity and t represents irradiation time while A and k are fitting parameters (for detailed derivations, see SI). The fitted equations for H2DBP and DBP-UiO are: IH2DBP=68.3×(1−e^−0.0015t) (2) IDBP-UiO=87.6×(1−e^−0.0031t) (3)
Singlet Oxygen Sensor Green (SOSG) was employed to determine ^1O2 generation efficiencies of H2DBC and DBC-UiO. SOSG reacted with generated ^1O2 to give green fluorescence (λem=525 nm) that was quantified with a fluorometer. For comparison, ^1O2 generation efficiency of H2DBP, DBP-UiO and protoporphyrin IX (PpIX) were also determined. The fluorescence plotted against irradiation time was fitted with an exponential function (Eq 1): IF=A(1−e^−kt) (Eq 1) indicating a pseudo first-order ^1O2 generation process. In Eq 1, IF is fluorescence intensity and t is irradiation time while A and k are fitting parameters. The total ^1O2 generation yield was normalized based on that of PpIX to compare the overall photosensitization efficiency. DBC-UiO is ˜3 times as efficient as DBP-UiO in generating ^1O2.

Molecule: 5, 15-di(p-benzoato)chlorin [H2DBC]
- A (fitting parameter for 1O2 generation curve): 102
- Relative yield of 1O2 generation: 4.3

Molecule: O=C(O)c1ccc(-c2c3nc(cc4ccc([nH]4)c(-c4ccc(C(=O)O)cc4)c4nc(cc5ccc2[nH]5)C=C4)C=C3)cc1 [H2DBP, 5,15-di(p-benzoato)porphyrin]
- A (fitting parameter of singlet oxygen generation) (5 μM in HBSS, 640 nm LED 100 mW/cm^2): 68.3
- A (fitting parameter for 1O2 generation curve): 101
- Relative yield of 1O2 generation: 1.8
